Measured values taken from paper PMC9898758, “Analysis of a degron-containing reporter protein GFP-CL1 reveals a role for SUMO1 in cytosolic protein quality control” (The Journal of Biological Chemistry, 2022).
These are yes or no findings as the source states them, for the method shown. Some binding calls cover weakened binding; strength is not graded here. Sequences can lack the tags named with a protein.

Sequences of proteins named here, by UniProt entry; tags and fusion partners are left off. Residues count along the entry.
UniProt Q12306, residues 13-98: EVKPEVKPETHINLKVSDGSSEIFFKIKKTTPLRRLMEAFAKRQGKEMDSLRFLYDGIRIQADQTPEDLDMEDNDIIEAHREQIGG

Target: T1, MBP-Slx5 (UniProt P32828 1-619)
T1 construct: Plasmid was a gift from Dr Oliver Kerscher; also called MBP-tagged SLX5; source: E. coli Rosetta, purified (amylose resin)
T1 sequence (looked up): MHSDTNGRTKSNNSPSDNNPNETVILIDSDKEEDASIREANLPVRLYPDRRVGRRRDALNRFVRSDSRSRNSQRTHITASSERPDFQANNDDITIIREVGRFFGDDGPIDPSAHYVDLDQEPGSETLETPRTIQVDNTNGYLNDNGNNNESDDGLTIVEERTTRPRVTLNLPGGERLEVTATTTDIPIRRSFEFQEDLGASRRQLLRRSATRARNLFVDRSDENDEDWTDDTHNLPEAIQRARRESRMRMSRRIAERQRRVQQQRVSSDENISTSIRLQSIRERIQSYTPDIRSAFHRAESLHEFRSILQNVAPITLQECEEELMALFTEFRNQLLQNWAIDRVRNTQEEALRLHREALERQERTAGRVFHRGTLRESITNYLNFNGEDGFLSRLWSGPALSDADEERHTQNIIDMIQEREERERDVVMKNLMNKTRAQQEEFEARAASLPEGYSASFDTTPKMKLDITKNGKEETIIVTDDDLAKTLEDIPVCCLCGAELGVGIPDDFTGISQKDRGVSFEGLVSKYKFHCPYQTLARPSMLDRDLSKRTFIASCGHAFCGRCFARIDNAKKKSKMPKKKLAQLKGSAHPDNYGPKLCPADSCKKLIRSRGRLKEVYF
Assay: pull-down; MBP-Slx5 or MBP alone immobilised on amylose beads, incubated with purified GST, GST-Smt3 or GST-Smt3-K38/40A; washes, SDS-PAGE, immunoblot with anti-MBP and anti-GST; both purified

binding: binds
Substance: GST-tagged WT Smt3 (from UniProt Q12306 13-98)
